Laboratory results taken from publication PMC10163288.
This is one part of the list.

B1: il10ra_site1_normal_mot_8756ee2cf497b5429c717dfc0c0bcfd6_0001_000000186_0001_1_13_H_._HHH_b1_04603_af2_0001_0000100008_0000001_1_af2pred_0001 (protein)
chain: SSSSTEEVQRLLRRVIELLNEGDKEEAEELLEEAKKLAEELGSEVLRAILEYLQELLERGSSSSS
B2: il10ra_site1_sap_21_mot_HHH_b1_07835_af2_000000063_0001_1_16_H_._HHH_eva_0501_0001_0000200017_0000001_0_0001 (protein)
chain: SSSSDEELQEALELSIKAFRAALRGDPEEAERLLERALELAERLGDERLAEQIRQLLEALGSSSS
B3: il10ra_site1_sap_20_mot_745ba417a8ead33aea5db1974d5d2f48_0001_1_af2_000000024_0001_16_30_H_._HHH_b2_04807_0001_0000300035_0000001_0_0001 (protein)
chain: SSSSSEEVYELIRRVIELLSEGNREEAEELLEQLRKLIEEEGDPVMEFILRLLERMLELTSSSSS
B4: il10ra_site1_normal_mot_HHH_b2_00943_af2_000000149_0001_1_17_H_._HHH_b1_02469_0001_0000100005_0000001_0 (protein)
chain: SSSSDEEVEQLLVEAMELLEEGNPEEALKVLEEALELAEELGDEHARFLVRQALKALRRFLSSSS
B5: il10ra_site1_normal_mot_HHH_b2_07145_000000158_0001_24_40_H_._HHH_b1_06553_af2_0001_0000100008_0000001_0 (protein)
chain: SSSSSEELFRAAREAIEHAAELARSGDPEEARRLLEEVLEELEENNNQAALWSVRHLLRLISSSS
B6: il10ra_site1_sap_15_mot_HHH_b2_03438_af2_000000049_0001_18_34_H_._HHH_b1_00102_0001_0000200018_0000001_0_0001 (protein)
chain: SSSSTELIQRAFELLELLKELNDEENLIELARVLTKVVAEGDPELEKELEEVIKEIEEQVNSSSS
B7: il10ra_site1_sap_24_mot_HHH_b2_07346_af2_000000031_0001_38_52_H_._HHH_b1_02819_af2_0001_0000500023_0000002_0_0001 (protein)
chain: SSSSDEAREEVEKLLEEAEKAEEEGDHEAVLRLLLRAVQLAFHGKDEELLREVWRLVHELSSSSS
B8: il10ra_site1_normal_mot_a6c796b944619e241e020fd597ddb6da_0001_af2_000000092_0001_15_31_H_._HHH_b2_01456_af2_0001_0000600036_0000001_0_af2pred_0001 (protein)
chain: SSSSSSTRVEVEVRALLWFAKYSKNEEAVELALELARELAEENNDEELKELVEKVAEELSSSSSS
B9: il10ra_site1_sap_15_mot_HHH_b2_00440_af2_000000075_0001_42_56_H_._HHH_b2_04674_0001_0000300032_0000001_0_0001 (protein)
chain: SSSSDTLEWSVRFALRVVEELAKLGDPEHARALLRALEHVLRQAGDEELLREVEELLEEISSSSS
B10: il10ra_site1_normal_mot_HHH_b2_04275_000000272_0001_20_36_H_._HHH_b1_07500_0001_0000100002_0000002_0_af2pred_0001 (protein)
chain: SSSSSEEDEEIVKLLREVAEVHREGDEERAEELLEEIERLIEEANNEIARAIVEFLKKILSSSSS
B11: il10ra_site1_normal_mot_e1dd4851c59bc1cdde016f988f6856bd_0001_1_000000200_0001_16_31_H_._HEEHE_1920_af2_0001_0000700008_0000001_0 (protein)
chain: DEVEMLEISLRYVAEQLNVPSVEVEVRNGEVHIEIEGTDQAARELSEMARFQARALGVDVEVEVE
B12: il10ra_site1_normal_mot_HHH_b2_03745_000000022_0001_1_20_H_._HHH_b1_02987_0001_0000100010_0000001_0 (protein)
chain: SSSSTEVFERVRELVERIAELIRNGNPEEAEELIEEIEQLAKEYNNPVVEAAARALKRAVSSSSS
B13: il10ra_site1_sap_22_mot_HHH_b2_02736_000000092_0001_22_38_H_._HHH_b1_06841_0001_0000100008_0000001_0_0001 (protein)
chain: SSSSDRKERVIELIMRVARLLIRGDREEAEELLEEIRELVEKLGDEALERALEILEQAIKASSSS
B14: il10ra_site1_normal_mot_HHH_b2_02337_000000026_0001_38_52_H_._HHH_b1_06864_0001_0000200014_0000001_0 (protein)
chain: SSSSDLEEEIEELIRELERLLEEGDEEKFAEVAQRVVQHIYELGDPELLKQVWEIVQRFASSSSS
B15: il10ra_site1_sap_11_mot_HHH_b2_00943_af2_000000149_0001_1_17_H_._HHH_b1_02974_af2_0001_0000600040_0000002_0_0001 (protein)
chain: SSSSSELEREIRELLEELEEAAERGDEELVAKLALEILRLIYRLGDAELLRQLWRLFREAFSSSS
B16: il10ra_site1_normal_mot_HHH_b1_02492_000000051_0001_1_21_H_._HHH_b1_03692_0001_0000100014_0000001_0 (protein)
chain: SSSSDEAYEAARRAIEEVSRLFEEGNREEARELARELIEELEELGNEAALWAAEHLLRALESSSS
B17: il10ra_site1_sap_17_mot_HHH_b1_03763_000000209_0001_22_38_H_._HHH_b2_07616_0001_0000200007_0000001_0_0001_af2pred_0001 (protein)
chain: SSSSSSDEEEVEELLEEARHVPDPFERAYLLVRAFAVAARSRNPELEELVKEVAIKLSSSSSSSS
B18: il10ra_site1_normal_mot_HHH_b1_05357_000000034_0001_23_39_H_._HHH_b2_02441_0001_0000300049_0000001_1_af2pred_0001 (protein)
chain: SSSSSEERQEELREEVERLLKEGDLKRAAYALLHAFAIANRLNDEELREVIEELARLVAELSSSS
B19: il10ra_site1_sap_13_mot_HHH_b2_03220_af2_000000223_0001_23_40_H_._HHH_b1_00095_0001_0000100004_0000001_0_0001_af2pred_0001 (protein)
chain: SSSSDDRLREIVELIRKAIQLIAEGDPEEARRVLEEAEELAEEANNPIAERVLKTLKEQLDSSSS
B20: il10ra_site1_normal_mot_HHH_b1_08477_000000091_0001_40_57_H_._HHH_b2_02252_0001_0000100010_0000002_0 (protein)
chain: SSSSSDAERSLRRLLEALRYLAELGDEEAFRQLAQFIKALARAANDPEIEERVEEIEERVHSSSS
B21: il10ra_site1_sap_17_mot_HHH_b2_02736_000000092_0001_22_38_H_._HHH_b1_02582_af2_0001_0000600060_0000001_0_0001_af2pred_0001 (protein)
chain: SSSSSDLEELEEIVEELAKRVDEEVRRALERYLEAAERAKELGDEERAELALRVAIALGSSSSSS
B22: il10ra_site1_normal_mot_HHH_b2_01310_000000089_0001_41_55_H_._HHH_b1_08628_af2_0001_0000100003_0000001_0_af2pred_0001 (protein)
chain: SSSDEEERAEELYERAEELIEEGDEEEAIRLLAELSRFVFKLGDPELTRLVLELAELIKKLSSSS
B23: il10ra_site1_normal_mot_HHH_b1_08440_000000140_0001_1_20_H_._HHH_b1_00906_af2_0001_0000400011_0000001_0 (protein)
chain: SSSSDLEEEVEELLEELKHAKDQQEFAELALRVVRVAHESSDPELLEEVWEVIKEVAKRLSSSSS
B24: il10ra_site1_normal_mot_6bb093d23f5042b6c551c363657da53b_0001_1_000000153_0001_51_65_H_._HHH_b2_04858_af2_0001_0000500010_0000001_0 (protein)
chain: SSSSSEVEKEVEELIEEVEEALKQGDNELAIRLLREAVRIAAENDNPELLEELQRLAHLIVSSSS

Target: il10ra, Q13651
Assay: yeast display titration

Binder	apparent Kd
B1	inactive: no binding seen
B2	inactive: no binding seen
B3	inactive: no binding seen
B4	inactive: no binding seen
B5	inactive: no binding seen
B6	inactive: no binding seen
B7	inactive: no binding seen
B8	inactive: no binding seen
B9	inactive: no binding seen
B10	inactive: no binding seen
B11	inactive: > 697 nM
B12	inactive: no binding seen
B13	inactive: no binding seen
B14	inactive: no binding seen
B15	inactive: no binding seen
B16	inactive: no binding seen
B17	inactive: no binding seen
B18	inactive: no binding seen
B19	inactive: no binding seen
B20	inactive: no binding seen
B21	inactive: no binding seen
B22	inactive: no binding seen
B23	inactive: no binding seen
B24	inactive: no binding seen

Part of the list above, with each value named:
B6
  apparent Kd: inactive: no binding seen
B7
  apparent Kd: inactive: no binding seen
